Assay results: PubChem BioAssay AID504375 (National Center for Advancing Translational Sciences (NCATS), 2011)
The whole screen tested about 1,600 compounds, of which about 25 (2%) were called active. Not shown: some 7% with an inconclusive outcome. Calls come from the whole dose curve; as a rule, active = well fitted inhibition curve with a large enough effect; inconclusive = small, poorly fitted or top-dose-only effect, or effect the other way; inactive = no such curve, though single readings can be large or run the other way. This is one part of the list.

By UniProt entry, the sequences of proteins in these tests, tags left out.
UniProt Q01196, whole entry, looked up: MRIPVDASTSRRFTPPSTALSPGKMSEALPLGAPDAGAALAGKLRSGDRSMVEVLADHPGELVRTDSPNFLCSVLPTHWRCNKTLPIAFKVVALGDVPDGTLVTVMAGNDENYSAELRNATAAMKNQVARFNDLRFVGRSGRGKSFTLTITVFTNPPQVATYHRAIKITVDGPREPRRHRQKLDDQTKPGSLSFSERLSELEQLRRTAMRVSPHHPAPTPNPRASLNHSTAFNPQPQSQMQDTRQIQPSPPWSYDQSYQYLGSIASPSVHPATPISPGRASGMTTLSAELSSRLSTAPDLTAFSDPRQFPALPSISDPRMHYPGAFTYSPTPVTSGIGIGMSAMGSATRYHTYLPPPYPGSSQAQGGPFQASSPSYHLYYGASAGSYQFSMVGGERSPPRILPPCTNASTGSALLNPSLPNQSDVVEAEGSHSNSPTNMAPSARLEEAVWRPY
UniProt Q13951, whole entry, looked up: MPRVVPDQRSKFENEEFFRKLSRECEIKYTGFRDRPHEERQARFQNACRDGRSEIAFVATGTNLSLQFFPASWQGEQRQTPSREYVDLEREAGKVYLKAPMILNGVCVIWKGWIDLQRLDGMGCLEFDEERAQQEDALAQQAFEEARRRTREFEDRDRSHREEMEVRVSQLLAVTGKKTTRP

Target: Runt-related transcription factor 1 (Homo sapiens) + Core-binding factor subunit beta (Homo sapiens) (UniProt Q01196+Q13951)
Assay: qHTS Assay for Compounds Blocking the Interaction Between CBF-beta and RUNX1 for the Treatment of Acute Myeloid Leukemia: Hit Validation with Orthogonal Assay
Conditions: CBFbeta-RUNX1 binding orthogonal assay, biochemical; series mostly up to 41 µM; activity change, negative = inhibition: at the top concentration
Method in brief: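 This is an orthogonal TR-FRET assay. His6-CBF-beta and biotin-RUNX1 (30 nM each) were preincubated with compound for 30 min, then Tb-anti-His antibody (0.44 ng) and streptavidin-XL665 (5 nM) were added. The signal was read after 90 min.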
% is set by controls: 0 for no effect and ±100 for the full control effect.

SMILES | activity change, negative = inhibition
CN(C)c1cc(-c2ccc(F)cc2)oc(=O)c1Cl | inactive: 15.1%
Cc1nn2c(NCCOCCO)c3c(nc2c1-c1ccccc1)CCC3 | inactive: -12.1%
N#C/C(=C\c1cccnc1)c1ccc(Br)cc1 | inactive: 20.2%
Nc1cccnc1Oc1ccccc1F | inactive: 0.0122%
O=C(NN1C(=O)CSC1=S)C(=O)NN1C(=O)CSC1=S | inactive: 2.9% [at 82.4 µM]
CC(=O)Nc1ccc(OCCOc2ccc([N+](=O)[O-])cc2)cc1 | inactive: 14.9%
O=C(O)/C=C/C(=O)Nc1ccc(OC(F)(F)F)cc1 | inactive: -0.392%
N#Cc1c(-c2cccnc2)c2c([nH]c1=O)-c1ccccc1OC2 | inactive: 26.4%
C=CCc1cc(Cl)ccc1OC(=O)Nc1cccc(Cl)c1 | inactive: 18%
Cc1onc(-c2c(F)cccc2Cl)c1C(=O)N1CCSCC1 | inactive: 17.9%
CCOC(=O)C1CC(C)=C(C)CC1C(=O)O (stereo not drawn) | inactive: -4.61%
COC(=O)c1cc(NS(=O)(=O)c2ccc(F)cc2)ccc1N1CCOCC1 | inactive: -13.2%
O=C(O)/C=C/C(=O)Nc1ccc(N2CCOCC2)nc1N1CCOCC1 | inactive: 30.7%
O=C(O)c1cnc2[nH]c3ccccc3n2c1=O | inactive: 11.2%
CN1c2ccccc2C(=O)/C(=C\Nc2ccc(F)cc2)S1(=O)=O | inactive: 3.72%
CCOC(=O)N1CCC(NC(=O)CCCC(=O)O)CC1 | inactive: -4.06%
COc1cc(/C=N/n2c(-c3ccccc3)n[nH]c2=S)cc(OC)c1O | inactive: 9.69%
CCN(CC)S(=O)(=O)c1ccc(/C=C/C(=O)Nc2ccc(N3CCOCC3)cc2)cc1 | inactive: 8.12%
CC1(c2ccccc2)O[C@@H]2C[C@H]3[C@@H]4CCC5=CC(=O)C=C[C@]5(C)[C@@]4(F)[C@@H](O)C[C@]3(C)[C@]2(C(=O)CO)O1 (stereo partly drawn) | inactive: -12.2%
NCC(=O)c1cccc2ccc[n+]([O-])c12 | inactive: 14.6%

SMILES | activity change, negative = inhibition
N#CCCN1CCCc2cc(N=Nc3ccc(C(F)(F)F)cc3)ccc21 | inactive: 27.5%
CCN(CC)CCNC(=O)c1ccc2c(c1NCCO)C(=O)c1ccccc1C2=O | inactive: 76.8%
CC1CC(C)(C)OC(C[N+]2(C)CCCCC2)O1 (stereo not drawn) | inactive: -15.5%
Cc1cc(C)cc(OCc2ccc(C(=O)NN)o2)c1 | inactive: -6.13%
Cc1nc(-c2ccc(S(=O)(=O)N3CCN(CCc4ccccc4)CC3)s2)cs1 | inactive: -7.22%
CCOC(=O)Cc1csc(NC(=O)Nc2cccc(OC)c2)n1 | inactive: -11.5%
CCOC(=O)C1CCCN(C(=O)c2csc(-c3ccc4c(c3)CCO4)n2)C1 (stereo not drawn) | inactive: 9.04%
O=C(Nc1ccc(F)cc1F)Nc1csc2ccccc12 | inactive: -13.3%
Cc1onc(-c2ccccc2)c1C(=O)Oc1ccccc1 | inactive: 6.45%
COc1ccccc1N1CC(C)(C)C(=O)N(C(=O)c2ccc(Cl)cc2)C1=S | inactive: 12%
CCCc1c(NC(=O)Nc2ccc(F)cc2)cnn1-c1ccc(Cl)cc1 | inactive: -9.04%
N#Cc1c(N)nc2c(c1-c1ccc(F)cc1)CCC2 | inactive: 0.367%
CC(C)(C)C(=O)Nc1ccccc1C(=O)NCc1cccnc1 | inactive: 7.35%
COc1cc(/C=C/c2nc3ccc([N+](=O)[O-])cc3s2)ccc1OCC(=O)O | inactive: 18.5%
COc1ccc(N/C=C2\C(=O)c3c(sc(C)c3C)N(C)S2(=O)=O)cc1 | inactive: 2.26%
c1ccc(C2=Nn3c(Cn4nnc5ccccc54)nnc3SC2)cc1 | inactive: -10.8%
O=C(O)C1CCC(=O)N1C(=O)OCc1ccccc1 (stereo not drawn) | inactive: -17.6%
CN(c1ccccc1)c1nc(N)c([N+](=O)[O-])c(N2CCCCC2)n1 | inactive: -2.53%
COC(=O)CSc1ncnc2c(C)csc12 | inactive: -9.2%
Cc1nn(Cc2ccc(C(=O)NN)cc2)c(C)c1Cl | inactive: -1.58%

3 of the compounds above, as comma-separated lines:
SMILES,"activity change, negative = inhibition"
O=C(O)C1CCC(=O)N1C(=O)OCc1ccccc1 (stereo not drawn),inactive: -17.6%
CN(c1ccccc1)c1nc(N)c([N+](=O)[O-])c(N2CCCCC2)n1,inactive: -2.53%
COC(=O)CSc1ncnc2c(C)csc12,inactive: -9.2%

Further entries:

SMILES | activity change, negative = inhibition
O=C(NNc1c(Cl)cc(Cl)cc1Cl)c1n[nH]c(=O)c2ccccc12 | inactive: 0.159%
Cc1cccc(-c2n[nH]c(=S)n2/N=C/c2cccs2)c1 | inactive: 11.6%
CC(C)(C)c1csc(Sc2ncccc2[N+](=O)[O-])n1 | inactive: 24.4%
Cc1cccc(NC(=S)NNC(=O)c2cccc([N+](=O)[O-])c2)c1 | inactive: 18.9%
O=C(Nc1ccc2[nH]ccc2c1)c1ccccc1 | inactive: 6.12%
Cc1ccc(C)c(N2CCN(c3ccncc3N)CC2)c1 | inactive: 11.2%
CC1=CC(=O)C(C(C)=Nc2ccccc2Cl)C(=O)O1 (stereo not drawn) | inactive: -0.147%
S=c1[nH]nc(Nc2cccc3ccccc23)s1 | inactive: 7.23%
CCCCC(=O)Nc1ccc2c(c1)nc1n2CCN(CCOC)C1 | inactive: -6.69%
C=C(C)C(=O)Nc1cccnc1Oc1ccc(F)cc1F | inactive: -3.93%
Cc1ccc(OCc2ccc(C(=O)NN)o2)cc1C | inactive: 5.19%
CC(C)CCN1NC2(CCCC(C)C2)NC1=S (stereo not drawn) | inactive: -8.73%
Nc1cc(Cl)nnc1Cl | inactive: 12.8%
Cc1nn2c(NCCN(C)C)c3c(nc2c1-c1ccccc1)CCCC3 | inactive: -6.26%
CCCc1ccc(C(=O)NC(=O)c2ccccc2O)cc1 | inactive: -12.4%
COC(=O)c1ccc(COc2ccc(C)cc2[N+](=O)[O-])o1 | inactive: 23.5%
COc1ccccc1OCc1ccc(C(=O)NN)o1 | inactive: 0.502%
Cc1nn2c(NCc3ccccn3)cc(C(C)C)nc2c1-c1ccccc1 | inactive: -15.8%
